Source: PubChem BioAssay AID493014 (National Center for Advancing Translational Sciences (NCATS), 2011)
The other results are listed elsewhere or left out. Shown are side measurements of this screen, not its main read-out; they come without a call. The list favours compounds with an active or inconclusive main result. The note in brackets gives the kind of curve behind each potency; many fits are weak.

Assay: qHTS Assay to Find Inhibitors of Chronic Active B-Cell Receptor Signaling
Conditions: ABC-DLBCL IkBa-CBG/CBR reporter, luminescence ratio (green luciferase fused to IkBa over red control in TMD8 lymphoma cells), 4 h
How it was run: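 Cell line TMD8 (human ABC DLBCL), stably expressing tet-inducible CBG68-IkBa fusion and CBR; IMDM/0.5% FBS; cpd up to 46 uM; dox induction, 4 h, 37C/5% CO2; dual luminescence; green/red ratio; MG132 control.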

[1] = measured here: CBR red luminescence, cell number
[2] = measured here: IkBa-CBG green luminescence

| Compound | AC50 [1] | AC50 [2] |
| --- | --- | --- |
| CC(C)N(Cc1nnc(-c2ccc(Cl)cc2)o1)C(=O)c1cc2ccccc2o1 | 2.06 µM [rising, partial curve, poor fit] |  |
| O=C(N/N=C/C=C/c1ccccc1)c1ccncc1 | 13 µM [falling, partial curve] |  |
| COCCCn1c(=O)/c(=C\c2ccc(OC(F)F)c(OC)c2)s/c1=C(/C#N)C(=O)NCCOC | 0.1 µM [falling, full curve, poor fit] |  |
| CCc1c(C)nc(N)n2c(SCC(=O)Nc3ccccc3OC)nnc12 | 1.78 µM [falling, full curve, poor fit] |  |
| NNC(=O)/C(=C/c1cccs1)NC(=O)c1ccccc1Cl |  | 17.8 µM [falling, single point] |
| O=C(COC(=O)CN1C(=O)c2ccccc2C1=O)Nc1ccc(S(=O)(=O)N2CCCC2)cc1 | 6.51 µM [rising, full curve, poor fit] |  |
| C#CCOC(=O)/C(=C/c1ccc(F)cc1)NC(C)=O | 2.06 µM [falling, partial curve, poor fit] |  |
| O=C(N/N=C/c1cc(Br)ccc1O)c1ccccc1Cl | 2.59 µM [falling, partial curve, poor fit] |  |
| CSC1=C(C#N)C(c2ccc3c(c2)OCO3)C2=C(CCCC2=O)N1 (stereo unspecified) | 29.1 µM [rising, single point] |  |
| CCn1c(SCC(=O)N=Nc2c(O)[nH]c3ccccc23)nc2ccccc21 | 0.651 µM [falling, partial curve, poor fit] |  |
| CC1(C)C/C(=N\NC(=S)Nc2ccccc2F)c2cc(O)ccc2O1 |  | 15.8 µM [falling, partial curve, poor fit] |
| Cc1cc(C(=O)NC2CCCc3ccccc32)no1 (stereo unspecified) | 17.8 µM [falling, single point] |  |
| CCC(=O)Nc1ccc(N2CCCCC2)c(C(=O)Nc2ccccc2C)c1 | 3.26 µM [rising, single point] |  |
| COC(=O)C1C(=O)C=C(Nc2ccc(F)cc2)CC1c1ccc(OC)cc1 (stereo unspecified) | 23.1 µM [rising, single point] |  |
| CSCC[C@@H](C(=O)Nc1ccc2c(c1)OCCO2)N1Cc2ccccc2C1=O | 3.66 µM [falling, full curve, poor fit] |  |
| CC(C)(C)NC(=S)NNC(=O)c1ccccc1Cl | 9.2 µM [falling, partial curve] |  |
| NC1=NC[C@@H](Cc2ccc(O)cc2)N1CCc1cc(C(F)(F)F)cc(C(F)(F)F)c1 | 35.5 µM [falling, single point] |  |
| C#CCOCCOCCOCCNc1nc(N2CCN(C(=O)CCCCCCCCCCNC(=O)[C@H](CO)n3cc(CCCSC)nn3)CC2)nc(N2CCN(C(=O)CCCCCCCCCCNC(=O)[C@H](CCCCN)n3cc(C[C@@H](C)CC)nn3)CC2)n1 | 4.11 µM [falling, single point] |  |
| COc1cc(NC(=O)c2cccs2)c(OC)cc1NC(=O)CCC(=O)Nc1cccc2ncccc12 | 3.98 µM [falling, full curve, poor fit] |  |
| Cc1ccc(N(C)C(=O)n2cnc3ccccc32)cc1 | 15.8 µM [falling, single point] | 28.2 µM [rising, single point] |
| CC(C)(C)c1csc(NC(=O)c2ccc(Br)o2)n1 | 11.2 µM [falling, partial curve, poor fit] |  |

| Compound | AC50 [1] | AC50 [2] |
| --- | --- | --- |
| COc1cccc(CNc2ncc(-c3ccc(Br)cc3)n2C)c1 | 10 µM [falling, partial curve, poor fit] |  |
| Cc1nn(C)c(=O)n1-c1ccc(OCc2ccccc2)cc1 | 23.1 µM [falling, partial curve, poor fit] |  |
| O=C(NCCc1ccccc1)c1c(O)c2cccc3c2n(c1=O)CC3 | 18.4 µM [rising, single point] |  |
| Cc1ccc(Sc2ccc(NC(=O)CCN3C(=O)NC4(CCCC4)C3=O)cc2)c(C)c1 | 7.31 µM [falling, partial curve, poor fit] |  |
| CN(C)C(=O)Nc1ccccc1 | 6.31 µM [rising, partial curve, poor fit] |  |
| c1ccc(CCc2nc(-c3ccccc3)no2)cc1 | 14.1 µM [falling, single point] |  |
| O=C(c1ccc(OC2CCN(C(=O)c3cccnc3)CC2)cc1)N1CCCCCC1 | 11.2 µM [rising, partial curve, poor fit] |  |
| CCc1ccccc1N(CC(=O)Nc1cccnc1)S(=O)(=O)c1ccccc1 | 11.2 µM [falling, partial curve] |  |
| COc1ccc2oc(C(=O)OCC(=O)N3CCCC3=O)c(C)c2c1 | 8.2 µM [rising, partial curve, poor fit] |  |
| C=CCn1c(O)c2ccc(C(=O)N=NC(=O)COc3ccccc3F)cc2c1O | 2.91 µM [falling, partial curve, poor fit] |  |
| CC(=O)Nc1ccc(S(=O)(=O)N2CCN(S(=O)(=O)N3CCCCCC3)CC2)cc1 | 1.3 µM [falling, partial curve] |  |
| CCOc1ncccc1C(=O)OCC(=O)NC1CCCCC1 | 13 µM [rising, partial curve, poor fit] |  |
| CCCCCCCCCCCCCCCC(=O)OC(CC(=O)O)C[N+](C)(C)C (stereo unspecified) | 18.4 µM [falling, partial curve, poor fit] |  |
| O=C1NN(c2ccccc2)C(=O)/C1=C/c1ccc(-c2cccc(C(=O)O)c2)o1 | 10 µM [falling, partial curve, poor fit] |  |
| CC(=O)c1ccc(C(=O)N(Cc2cccnc2)c2nc3c(Cl)cccc3s2)cc1 | 11.2 µM [falling, partial curve] |  |
| CC12CCC(C(=O)N(NC(=O)c3ccccc3Cl)C1=O)C2(C)C (stereo unspecified) | 4.61 µM [falling, full curve] |  |
| CCN(CC)c1ccc(CNc2ccc(Br)cn2)cc1 | 29.1 µM [rising, single point] | 1.03 µM [rising, full curve, poor fit] |
| Cc1cc(CNC(=O)Cc2ccc(F)cc2)c2ccccc2n1 |  | 35.5 µM [falling, partial curve, poor fit] |
| CCN1/C(=C2\C(=O)N(c3ccccc3)N=C2C)C=Cc2cc(C)ccc21 | 18.4 µM [rising, partial curve, poor fit] |  |
| Cc1nn(CC(=O)NC(C)c2ccccc2)c(=O)c2ccccc12 (stereo unspecified) | 0.116 µM [falling, full curve, poor fit] |  |
| O=C(CCS(=O)(=O)c1ccccc1)Nc1cccc(-c2nc3ccccc3s2)c1 | 29.1 µM [falling, single point] | 29.1 µM [rising, partial curve, poor fit] |

| Compound | AC50 [1] | AC50 [2] |
| --- | --- | --- |
| CC[C@@H]1C=C(C(=O)O)[C@H](c2ccc3c(c2)OCO3)N1S(=O)(=O)c1ccc(C)cc1 | 25.9 µM [falling, single point] |  |
| CC(=O)c1ccc(OCCOc2ccc([N+](=O)[O-])cc2)cc1 | 25.1 µM [rising, partial curve, poor fit] |  |
| Cc1cc(N)c2ccccc2n1 | 28.2 µM [falling, single point] |  |
| O=C(/C=C/c1ccco1)Oc1cccc2cccnc12 | 35.5 µM [rising, single point] | 35.5 µM [falling, single point] |
| C/C(CC(=O)Nc1ccc(Br)cc1)=N\NC(=O)c1cccc(O)c1 | 1 µM [falling, full curve] |  |
| Cc1cc(NC(=O)c2c(F)cccc2F)n(-c2nc3ccccc3[nH]2)n1 | 0.631 µM [falling, full curve, poor fit] |  |
| CC(=O)Nc1ccc(S(=O)(=O)N(C)CC(=O)OCC(=O)Nc2cccnc2Cl)cc1 | 4.11 µM [rising, full curve, poor fit] |  |
| Clc1cccc(-c2sc(Nc3ccccc3)n[n+]2-c2ccccc2)c1Cl | 11.2 µM [falling, single point] |  |
| O=C(CSc1nc2ccccc2[nH]1)Nc1c(F)cccc1F | 3.98 µM [falling, partial curve] |  |
| COc1cc(NC(=S)NCCN2CCOCC2)cc(OC)c1 | 2.06 µM [rising, full curve, poor fit] |  |
| CCCC(=O)Nc1nc2ccc(C(=O)OCC)cc2s1 | 20.6 µM [falling, partial curve] |  |
| O=C(N/N=C/C=C/c1ccccc1)NC1CCCCC1 | 31.6 µM [falling, single point] |  |
| CCOC(=O)c1c(C)n(C)c2ccc(OCC(O)Cn3nc(C)c(Br)c3C)cc12 (stereo unspecified) | 16.4 µM [falling, partial curve, poor fit] | 25.9 µM [rising, partial curve, poor fit] |
| C=CCNc1sc(C(=O)c2ccccc2)c(N)c1-c1nc2ccccc2s1 | 22.4 µM [falling, single point] |  |
| O=C1NC(=S)S/C1=C\c1ccc(SCc2ccccc2)o1 | 18.4 µM [rising, single point] |  |
| CCCCCc1cc(O)c2c(C)cc(=O)oc2c1 | 1.46 µM [rising, partial curve] |  |
| S=C(Nc1ccc2cn[nH]c2c1)Nc1ccccc1Cl | 29.1 µM [falling, single point] |  |
| COc1ccc(NS(=O)(=O)c2cccc(C(=O)N/N=C/c3ccccc3OC)c2)cc1 | 11.6 µM [falling, partial curve, poor fit] |  |
| Cc1cc(O)cc(O)c1-c1onc(C(F)(F)F)c1-c1cscn1 | 35.5 µM [falling, single point] |  |

One compound at a time (already shown).
CCOC(=O)c1c(C)n(C)c2ccc(OCC(O)Cn3nc(C)c(Br)c3C)cc12 (stereo unspecified) as listed: AC50 [1]: 16.4 µM [falling, partial curve, poor fit]; AC50 [2]: 25.9 µM [rising, partial curve, poor fit]
Clc1cccc(-c2sc(Nc3ccccc3)n[n+]2-c2ccccc2)c1Cl as listed: AC50 [1]: 11.2 µM [falling, single point]
